Data reported in the supplement of paper PMC10849652.
This is one part of the list.

Sequences of proteins named here, by UniProt entry; tags and fusion partners are left off. A change or cut given only in a name is not applied to a line headed by its entry.
UniProt Q13287: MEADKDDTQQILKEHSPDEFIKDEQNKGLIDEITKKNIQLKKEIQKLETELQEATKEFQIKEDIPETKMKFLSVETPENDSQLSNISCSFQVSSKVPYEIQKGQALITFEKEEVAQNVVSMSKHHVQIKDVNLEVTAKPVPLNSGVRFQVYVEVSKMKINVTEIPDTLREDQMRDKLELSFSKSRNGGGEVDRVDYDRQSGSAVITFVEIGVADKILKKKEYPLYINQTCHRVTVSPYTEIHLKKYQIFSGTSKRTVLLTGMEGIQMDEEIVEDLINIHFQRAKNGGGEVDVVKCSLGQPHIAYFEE
UniProt O60936: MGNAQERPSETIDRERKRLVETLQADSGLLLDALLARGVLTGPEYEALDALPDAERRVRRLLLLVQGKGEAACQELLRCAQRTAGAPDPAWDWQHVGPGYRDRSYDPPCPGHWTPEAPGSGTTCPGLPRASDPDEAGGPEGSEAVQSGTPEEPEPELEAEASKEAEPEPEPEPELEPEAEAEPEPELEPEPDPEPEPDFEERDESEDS
UniProt P35240: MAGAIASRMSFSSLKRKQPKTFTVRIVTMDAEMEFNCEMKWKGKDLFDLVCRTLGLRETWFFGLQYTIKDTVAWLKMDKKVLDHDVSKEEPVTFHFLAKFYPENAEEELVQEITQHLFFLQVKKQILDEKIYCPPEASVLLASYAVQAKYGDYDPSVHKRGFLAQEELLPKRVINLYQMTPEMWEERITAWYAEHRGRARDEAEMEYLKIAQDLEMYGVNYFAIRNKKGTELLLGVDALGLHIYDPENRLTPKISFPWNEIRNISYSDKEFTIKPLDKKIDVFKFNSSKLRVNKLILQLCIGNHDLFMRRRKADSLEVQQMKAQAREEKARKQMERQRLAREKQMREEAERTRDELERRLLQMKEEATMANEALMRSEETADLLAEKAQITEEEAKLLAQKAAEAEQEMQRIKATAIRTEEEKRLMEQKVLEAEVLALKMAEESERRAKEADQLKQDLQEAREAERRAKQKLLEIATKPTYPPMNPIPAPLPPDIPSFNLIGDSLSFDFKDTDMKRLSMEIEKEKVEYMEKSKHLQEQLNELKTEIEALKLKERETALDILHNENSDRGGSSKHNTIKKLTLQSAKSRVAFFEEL
UniProt Q16656: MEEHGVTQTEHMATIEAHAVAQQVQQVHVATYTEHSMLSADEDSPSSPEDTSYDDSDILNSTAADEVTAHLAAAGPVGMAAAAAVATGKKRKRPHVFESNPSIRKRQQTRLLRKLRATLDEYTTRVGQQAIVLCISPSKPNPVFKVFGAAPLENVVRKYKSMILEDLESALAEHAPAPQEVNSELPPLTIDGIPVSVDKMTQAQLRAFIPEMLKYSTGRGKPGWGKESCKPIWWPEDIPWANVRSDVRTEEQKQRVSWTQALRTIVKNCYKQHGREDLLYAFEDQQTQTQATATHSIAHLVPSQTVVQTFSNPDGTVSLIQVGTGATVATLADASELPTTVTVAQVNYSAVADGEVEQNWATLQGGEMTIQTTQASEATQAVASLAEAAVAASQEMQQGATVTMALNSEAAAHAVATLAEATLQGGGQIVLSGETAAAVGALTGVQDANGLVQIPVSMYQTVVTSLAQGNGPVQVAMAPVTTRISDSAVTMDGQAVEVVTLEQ
UniProt Q9UGY1: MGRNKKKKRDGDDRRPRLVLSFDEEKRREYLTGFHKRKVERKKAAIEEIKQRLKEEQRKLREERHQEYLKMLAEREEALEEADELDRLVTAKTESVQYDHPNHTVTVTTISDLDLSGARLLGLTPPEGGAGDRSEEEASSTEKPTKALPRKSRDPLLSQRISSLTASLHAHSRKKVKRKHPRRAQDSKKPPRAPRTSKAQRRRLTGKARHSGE
UniProt O14524: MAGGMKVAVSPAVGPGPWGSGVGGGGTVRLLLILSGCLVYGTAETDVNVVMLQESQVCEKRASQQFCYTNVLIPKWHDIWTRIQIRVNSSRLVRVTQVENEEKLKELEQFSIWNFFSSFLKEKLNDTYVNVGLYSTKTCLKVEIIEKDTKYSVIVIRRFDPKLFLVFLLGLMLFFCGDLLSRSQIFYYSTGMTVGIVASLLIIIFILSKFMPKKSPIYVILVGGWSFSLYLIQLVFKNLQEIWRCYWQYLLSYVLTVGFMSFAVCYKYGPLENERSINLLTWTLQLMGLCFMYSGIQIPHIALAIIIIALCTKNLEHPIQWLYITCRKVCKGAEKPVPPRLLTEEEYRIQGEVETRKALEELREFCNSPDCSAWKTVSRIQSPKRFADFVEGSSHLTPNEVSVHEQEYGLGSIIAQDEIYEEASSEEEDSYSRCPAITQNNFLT
UniProt Q8WX92, whole entry, looked up: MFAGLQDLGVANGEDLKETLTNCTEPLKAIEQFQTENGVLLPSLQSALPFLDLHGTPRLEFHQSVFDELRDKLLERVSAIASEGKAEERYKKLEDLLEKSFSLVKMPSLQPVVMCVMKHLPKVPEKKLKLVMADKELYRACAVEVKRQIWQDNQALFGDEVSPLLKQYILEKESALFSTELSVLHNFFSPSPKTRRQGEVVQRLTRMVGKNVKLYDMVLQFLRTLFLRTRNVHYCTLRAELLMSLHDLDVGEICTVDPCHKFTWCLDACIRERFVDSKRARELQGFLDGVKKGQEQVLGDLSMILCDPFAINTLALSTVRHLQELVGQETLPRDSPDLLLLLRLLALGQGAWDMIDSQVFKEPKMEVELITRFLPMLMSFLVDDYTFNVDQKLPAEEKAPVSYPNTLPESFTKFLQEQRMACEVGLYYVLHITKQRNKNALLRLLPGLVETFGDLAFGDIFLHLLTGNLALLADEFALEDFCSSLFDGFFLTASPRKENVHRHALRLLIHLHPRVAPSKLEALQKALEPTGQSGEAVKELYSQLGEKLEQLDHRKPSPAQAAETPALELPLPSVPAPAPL
UniProt P46459: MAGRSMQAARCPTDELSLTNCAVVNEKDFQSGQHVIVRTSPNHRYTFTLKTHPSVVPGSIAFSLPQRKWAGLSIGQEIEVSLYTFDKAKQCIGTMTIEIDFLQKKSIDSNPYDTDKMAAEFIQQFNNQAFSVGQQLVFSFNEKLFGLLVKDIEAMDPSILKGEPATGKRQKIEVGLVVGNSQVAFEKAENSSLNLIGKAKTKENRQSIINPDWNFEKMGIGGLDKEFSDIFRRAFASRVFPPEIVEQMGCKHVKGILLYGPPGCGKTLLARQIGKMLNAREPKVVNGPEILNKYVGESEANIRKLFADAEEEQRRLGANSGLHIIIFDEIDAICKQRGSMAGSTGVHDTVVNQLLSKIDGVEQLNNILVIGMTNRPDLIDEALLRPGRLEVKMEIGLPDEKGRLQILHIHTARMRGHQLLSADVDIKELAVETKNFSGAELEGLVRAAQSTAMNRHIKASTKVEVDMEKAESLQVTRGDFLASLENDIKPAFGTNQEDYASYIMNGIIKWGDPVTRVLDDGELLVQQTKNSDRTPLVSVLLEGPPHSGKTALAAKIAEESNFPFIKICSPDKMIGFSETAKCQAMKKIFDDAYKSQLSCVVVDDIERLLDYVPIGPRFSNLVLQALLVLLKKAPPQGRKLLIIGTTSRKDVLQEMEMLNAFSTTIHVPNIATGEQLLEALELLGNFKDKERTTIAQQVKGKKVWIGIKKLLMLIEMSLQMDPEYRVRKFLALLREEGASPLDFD
UniProt P19838: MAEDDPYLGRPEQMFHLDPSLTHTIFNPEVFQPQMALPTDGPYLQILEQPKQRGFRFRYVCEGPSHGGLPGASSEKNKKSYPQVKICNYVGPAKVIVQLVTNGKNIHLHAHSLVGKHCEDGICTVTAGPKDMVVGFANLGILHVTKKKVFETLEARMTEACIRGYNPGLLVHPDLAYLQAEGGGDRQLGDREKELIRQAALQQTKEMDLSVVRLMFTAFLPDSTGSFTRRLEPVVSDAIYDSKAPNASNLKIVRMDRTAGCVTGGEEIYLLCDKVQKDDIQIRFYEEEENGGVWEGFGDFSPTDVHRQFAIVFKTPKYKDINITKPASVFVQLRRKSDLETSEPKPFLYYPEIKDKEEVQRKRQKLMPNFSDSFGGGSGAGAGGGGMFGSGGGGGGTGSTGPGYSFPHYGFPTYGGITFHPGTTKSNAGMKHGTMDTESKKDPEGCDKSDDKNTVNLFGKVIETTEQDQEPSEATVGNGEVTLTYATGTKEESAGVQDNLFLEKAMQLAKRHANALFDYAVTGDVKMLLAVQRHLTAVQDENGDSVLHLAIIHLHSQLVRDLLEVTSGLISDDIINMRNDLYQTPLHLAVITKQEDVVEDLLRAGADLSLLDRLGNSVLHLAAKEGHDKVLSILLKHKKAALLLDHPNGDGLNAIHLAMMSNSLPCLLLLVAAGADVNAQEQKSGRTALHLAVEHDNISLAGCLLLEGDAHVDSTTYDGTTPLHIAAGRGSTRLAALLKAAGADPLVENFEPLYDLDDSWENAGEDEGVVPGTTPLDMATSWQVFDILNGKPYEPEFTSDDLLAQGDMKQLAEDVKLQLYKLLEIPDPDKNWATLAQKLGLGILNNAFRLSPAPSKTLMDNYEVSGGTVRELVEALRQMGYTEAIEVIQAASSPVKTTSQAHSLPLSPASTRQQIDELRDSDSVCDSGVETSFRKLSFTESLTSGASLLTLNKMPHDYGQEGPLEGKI
UniProt Q8NBF2: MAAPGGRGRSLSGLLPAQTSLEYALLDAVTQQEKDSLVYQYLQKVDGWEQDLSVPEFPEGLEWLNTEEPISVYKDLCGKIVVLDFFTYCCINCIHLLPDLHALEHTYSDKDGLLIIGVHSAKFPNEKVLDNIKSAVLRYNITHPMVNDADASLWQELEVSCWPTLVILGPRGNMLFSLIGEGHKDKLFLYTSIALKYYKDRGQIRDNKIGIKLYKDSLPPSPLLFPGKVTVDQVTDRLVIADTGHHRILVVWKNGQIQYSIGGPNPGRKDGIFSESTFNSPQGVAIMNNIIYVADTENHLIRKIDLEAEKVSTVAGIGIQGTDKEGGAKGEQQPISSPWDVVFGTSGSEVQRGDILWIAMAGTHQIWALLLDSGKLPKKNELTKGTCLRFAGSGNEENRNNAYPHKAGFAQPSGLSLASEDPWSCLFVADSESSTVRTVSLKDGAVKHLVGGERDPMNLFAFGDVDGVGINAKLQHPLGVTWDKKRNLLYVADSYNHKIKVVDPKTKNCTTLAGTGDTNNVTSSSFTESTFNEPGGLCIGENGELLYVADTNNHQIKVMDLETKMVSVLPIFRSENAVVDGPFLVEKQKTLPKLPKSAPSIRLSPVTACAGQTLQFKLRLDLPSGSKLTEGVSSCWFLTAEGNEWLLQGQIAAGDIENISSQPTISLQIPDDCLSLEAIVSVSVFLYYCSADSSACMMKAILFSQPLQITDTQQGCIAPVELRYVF
UniProt Q9Y239: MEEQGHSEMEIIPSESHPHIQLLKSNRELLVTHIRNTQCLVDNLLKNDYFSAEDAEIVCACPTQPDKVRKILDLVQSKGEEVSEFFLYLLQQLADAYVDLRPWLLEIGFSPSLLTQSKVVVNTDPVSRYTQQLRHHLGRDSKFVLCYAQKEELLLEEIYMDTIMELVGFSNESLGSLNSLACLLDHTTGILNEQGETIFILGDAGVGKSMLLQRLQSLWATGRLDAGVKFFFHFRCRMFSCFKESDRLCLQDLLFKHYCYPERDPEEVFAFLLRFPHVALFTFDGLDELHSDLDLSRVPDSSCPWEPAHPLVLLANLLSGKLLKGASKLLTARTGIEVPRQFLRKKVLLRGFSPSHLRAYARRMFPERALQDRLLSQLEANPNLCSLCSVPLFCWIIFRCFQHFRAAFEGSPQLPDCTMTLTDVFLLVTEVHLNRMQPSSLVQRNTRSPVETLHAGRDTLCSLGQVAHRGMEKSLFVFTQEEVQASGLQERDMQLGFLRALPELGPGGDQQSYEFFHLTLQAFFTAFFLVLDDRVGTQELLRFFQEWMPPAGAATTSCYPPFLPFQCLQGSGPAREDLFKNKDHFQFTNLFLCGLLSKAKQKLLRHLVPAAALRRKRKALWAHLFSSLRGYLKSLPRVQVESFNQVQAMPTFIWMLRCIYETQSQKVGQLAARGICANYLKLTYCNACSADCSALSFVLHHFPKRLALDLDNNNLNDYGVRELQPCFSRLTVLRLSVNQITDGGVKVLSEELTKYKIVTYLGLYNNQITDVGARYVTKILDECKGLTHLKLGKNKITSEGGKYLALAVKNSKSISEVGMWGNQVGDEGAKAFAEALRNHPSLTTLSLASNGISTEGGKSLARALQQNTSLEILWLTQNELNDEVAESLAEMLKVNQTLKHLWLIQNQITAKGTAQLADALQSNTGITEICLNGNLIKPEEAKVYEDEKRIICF

How the values were obtained:
Assay in all cases: log2 fold change, soluble protein after heating vs DMSO (PISA); higher = thermal stabilisation; K562 cells, 10 uM, 30 min; active = over 0.2 and 3.5 SD of the protein, either way, in both replicates (recomputed)
[1] = compound: CS(=O)(=O)c1ccc(-c2cnc(N)c(C(=O)Nc3ccccc3)n2)cc1
Procedure, shortened: (§1)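 For each measurement, 10 μM compound was applied for 30 min to K562 cells at 2×10^6 cells/mL. Aliquots were heated for 3 min across 48°C-58°C, pooled, and extracted in PBS with 0.5% NP-40 at 4°C; the supernatant after 21,000xg for 90 min was soluble protein. This was quantified by TMTpro 16plex LC-MS/MS with channel sums equalised, and thermal stability was reported relative to control samples from duplicates, on a log2 fold-change scale.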

crizotinib = compound: C[C@@H](Oc1cc(-c2cnn(C3CCNCC3)c2)cnc1N)c1c(Cl)ccc(F)c1Cl [crizotinib]
Procedure, shortened: as §1

[2] = compound: C[C@@H]1COCCN1C2=NC(=NC(=C2)C3(CC3)S(=O)(=O)C)C4=C5C=CNC5=CC=C4
Procedure, shortened: as §1

[3] = compound: C[C@H](C1=CC=C(C=C1)C(=O)NC2=C3C=CNC3=NC=C2)N
Procedure, shortened: as §1

duvelisib = compound: C[C@H](Nc1ncnc2nc[nH]c12)c1cc2cccc(Cl)c2c(=O)n1-c1ccccc1 [duvelisib]
Procedure, shortened: as §1

gandotinib = compound: Cc1cc(Nc2cc(CN3CCOCC3)c3nc(C)c(Cc4ccc(Cl)cc4F)n3n2)n[nH]1 [gandotinib]
Procedure, shortened: as §1

tozasertib = compound: Cc1cc(Nc2cc(N3CCN(C)CC3)nc(Sc3ccc(NC(=O)C4CC4)cc3)n2)n[nH]1 [tozasertib]
Procedure, shortened: as §1

[4] = compound: Cc1cc(SCc2sc(-c3ccc(C(F)(F)F)cc3)nc2C)ccc1OCC(=O)O
Procedure, shortened: as §1

doramapimod = compound: Cc1ccc(-n2nc(C(C)(C)C)cc2NC(=O)Nc2ccc(OCCN3CCOCC3)c3ccccc23)cc1 [doramapimod]
Procedure, shortened: as §1

ispinesib = compound: Cc1ccc(C(=O)N(CCCN)[C@@H](c2nc3cc(Cl)ccc3c(=O)n2Cc2ccccc2)C(C)C)cc1 [ispinesib]
Procedure, shortened: as §1

bafetinib = compound: Cc1ccc(NC(=O)c2ccc(CN3CC[C@H](N(C)C)C3)c(C(F)(F)F)c2)cc1Nc1nccc(-c2cncnc2)n1 [bafetinib]
Procedure, shortened: as §1

[5] = compound: Cc1cccc(CC(=O)N2CCc3c2ccc(-c2cn(C)c4ncnc(N)c24)c3F)n1
Procedure, shortened: as §1

nilotinib = compound: Cc1cn(-c2cc(NC(=O)c3ccc(C)c(Nc4nccc(-c5cccnc5)n4)c3)cc(C(F)(F)F)c2)cn1 [nilotinib]
Procedure, shortened: as §1

[6] = compound: Cc1nc(Nc2n[nH]c3c2CN(C(=O)N[C@H](CN(C)C)c2ccccc2)C3(C)C)c2sccc2n1
Procedure, shortened: as §1

dasatinib = compound: Cc1nc(Nc2ncc(C(=O)Nc3c(C)cccc3Cl)s2)cc(N2CCN(CCO)CC2)n1 [dasatinib]
Procedure, shortened: as §1

[7] = compound: Cc1ncc(-c2ccnc(Nc3ccc(S(C)(=O)=O)cc3)n2)n1C(C)C
Procedure, shortened: as §1

[8] = compound: Cn1cc(-c2ccc3c(c2)CCN3C(=O)Cc2cccc(C(F)(F)F)c2)c2c(N)ncnc21
Procedure, shortened: as §1

[9] = compound: Cn1cc(-c2ccc3nnc(C(F)(F)c4ccc5ncccc5c4)n3n2)cn1
Procedure, shortened: as §1

tipifarnib = compound: Cn1cncc1[C@@](N)(c1ccc(Cl)cc1)c1ccc2c(c1)c(-c1cccc(Cl)c1)cc(=O)n2C [tipifarnib]
Procedure, shortened: as §1

mubritinib = compound: FC(F)(F)c1ccc(/C=C/c2nc(COc3ccc(CCCCn4ccnn4)cc3)co2)cc1 [mubritinib]
Procedure, shortened: as §1

Measured: log2 fold change

NMI (UniProt Q13287)
inactive: [1] 0.024 | crizotinib 0.006 | [2] 0.057 | [3] -0.027 | duvelisib 0.017 | gandotinib -0.006 | tozasertib -0.053 | [4] -0.012 | doramapimod 0.02 | ispinesib -0.009 | bafetinib -0.011 | [5] -0.034 | nilotinib -0.009 | [6] -0.014 | dasatinib 0.025 | [7] -0.008 | [8] 0.04 | [9] 0.034 | tipifarnib -0.023 | mubritinib 0.05

NFAT5 isoform 5 (UniProt O94916)
inactive: [1] 0.052 | crizotinib 0.061 | [2] 0.063 | [3] 0.086 | duvelisib 0.028 | gandotinib -0.032 | tozasertib 0 | [4] -0.142 | doramapimod 0.101 | bafetinib -0.086 | [5] 0.012 | nilotinib -0.174 | [6] -0.007 | dasatinib 0.083 | [7] -0.037 | [8] -0.073 | tipifarnib 0.112 | mubritinib 0.026

NOL3 isoform 3 (UniProt O60936)
inactive: [1] -0.209 | crizotinib -0.152 | [2] 0.021 | [3] -0.002 | duvelisib 0.037 | tozasertib -0.212 | [4] -0.033 | doramapimod 0.075 | ispinesib 0.005 | nilotinib -0.05 | [6] -0.123 | dasatinib -0.041 | [7] -0.029 | [8] 0.042 | [9] 0.029 | tipifarnib 0.214 | mubritinib -0.055

NOC2L (UniProt Q9Y3T9)
inactive: [1] 0.035 | crizotinib 0.034 | [2] 0.031 | [3] 0.01 | duvelisib 0.012 | gandotinib -0.044 | tozasertib 0.022 | [4] 0.099 | doramapimod -0.039 | bafetinib -0.049 | [5] -0.05 | nilotinib 0.017 | [6] -0.045 | dasatinib -0.02 | [7] -0.026 | [8] -0.099 | tipifarnib 0.107 | mubritinib -0.015

NF2 (UniProt P35240)
inactive: [1] -0.088 | crizotinib 0.019 | [2] 0.056 | [3] -0.053 | duvelisib 0.017 | gandotinib -0.057 | tozasertib -0.029 | [4] 0.028 | doramapimod 0.017 | ispinesib -0.094 | bafetinib -0.06 | [5] 0.058 | nilotinib -0.054 | [6] -0.065 | dasatinib -0.036 | [7] -0.08 | [8] 0.019 | [9] -0.005 | tipifarnib 0.033 | mubritinib 0

NRF1 isoform 4 (UniProt Q16656)
inactive: [1] 0.03 | crizotinib 0.071 | [2] 0.275 | [3] -0.107 | gandotinib -0.125 | [4] 0.017 | doramapimod -0.003 | ispinesib -0.004 | bafetinib -0.057 | [5] 0.023 | nilotinib -0.099 | [6] -0.152 | dasatinib -0.123 | [7] -0.042 | [8] 0.054 | [9] -0.096 | tipifarnib 0.022 | mubritinib 0.035

NEU1 (UniProt Q99519)
inactive: [1] -0.005 | [2] -0.15 | [3] 0.029 | gandotinib -0.056 | [4] -0.008 | doramapimod 0.155 | bafetinib -0.212 | [5] 0.171 | nilotinib -0.051 | [6] -0.009 | dasatinib 0.019 | [7] -0.147 | [8] -0.04 | [9] 0.01 | tipifarnib 0.072 | mubritinib -0.031
active: crizotinib -0.365 | ispinesib -0.319

NOL12 (UniProt Q9UGY1)
inactive: [1] 0.093 | crizotinib 0.038 | [2] -0.456 | [3] 0.449 | duvelisib -0.219 | gandotinib 0.322 | tozasertib 0.119 | [4] 0.024 | doramapimod 0.152 | ispinesib -0.016 | bafetinib 0.183 | [5] -0.006 | nilotinib -0.026 | [6] 0.161 | dasatinib 0.179 | [7] 0.044 | [8] -0.335 | [9] -0.147 | tipifarnib 0.136 | mubritinib -0.154

NEMP1 (UniProt O14524)
active: ispinesib -0.354
inactive: [1] -0.058 | crizotinib -0.121 | [2] -0.035 | [3] 0.011 | gandotinib -0.1 | [4] -0.014 | doramapimod 0.032 | bafetinib -0.147 | [5] 0.065 | nilotinib -0.186 | [6] 0.004 | dasatinib -0.009 | [7] 0.003 | [8] -0.007 | [9] -0.025 | tipifarnib 0 | mubritinib 0.036

NELFB isoform 2 (UniProt Q8WX92)
inactive: [1] 0.059 | crizotinib 0.019 | [2] 0.087 | [3] -0.08 | gandotinib -0.093 | [4] 0.086 | doramapimod -0.087 | ispinesib 0.042 | bafetinib -0.088 | [5] 0.046 | nilotinib -0.135 | [6] -0.123 | dasatinib -0.189 | [7] 0.05 | [8] 0.032 | [9] 0.014 | tipifarnib -0.081 | mubritinib 0.03

NSF (UniProt P46459)
inactive: [1] 0.028 | crizotinib -0.078 | [2] 0.047 | [3] 0.019 | duvelisib 0.015 | gandotinib -0.07 | tozasertib -0.008 | [4] 0.075 | doramapimod -0.029 | ispinesib -0.09 | bafetinib -0.008 | [5] 0.02 | nilotinib -0.01 | [6] 0.021 | dasatinib -0.114 | [7] -0.01 | [8] 0.041 | [9] 0.017 | tipifarnib -0.033 | mubritinib -0.013

NRBF2 (UniProt Q96F24)
inactive: [1] 0.009 | crizotinib 0.034 | [2] 0.098 | [3] -0.021 | duvelisib 0.119 | gandotinib 0.062 | tozasertib -0.079 | [4] -0.008 | doramapimod 0.022 | ispinesib 0.034 | bafetinib -0.05 | [5] -0.152 | nilotinib 0.016 | [6] -0.041 | dasatinib 0 | [7] 0.052 | [8] 0 | [9] 0.025 | tipifarnib -0.078 | mubritinib 0.04

NFKB1 isoform 2 (UniProt P19838)
inactive: [1] 0.058 | crizotinib -0.004 | [2] -0.112 | [3] 0.176 | duvelisib 0.027 | gandotinib -0.018 | tozasertib 0.119 | [4] 0.123 | ispinesib -0.056 | bafetinib -0.018 | [5] 0.159 | nilotinib -0.058 | [6] -0.399 | [7] -0.053 | [8] 0.041 | [9] -0.036 | tipifarnib 0.049 | mubritinib -0.062

NOL6 (UniProt Q9H6R4)
inactive: [1] -0.173 | crizotinib 0.081 | [2] -0.023 | [3] 0.463 | duvelisib -0.056 | gandotinib 0.06 | tozasertib 0.149 | [4] 0.098 | doramapimod 0.119 | ispinesib -0.087 | bafetinib 0.1 | [5] -0.116 | dasatinib 0.033 | [8] -0.203 | [9] -0.236 | tipifarnib 0.317 | mubritinib 0.019

NHLRC2 (UniProt Q8NBF2)
inactive: [1] 0.1 | crizotinib -0.127 | [2] 0.165 | [3] -0.011 | gandotinib -0.158 | [4] 0.044 | doramapimod -0.005 | ispinesib -0.198 | bafetinib -0.141 | [5] 0.002 | nilotinib -0.05 | [6] -0.004 | dasatinib -0.052 | [7] -0.001 | [8] 0.042 | [9] 0.006 | tipifarnib -0.024 | mubritinib 0.058

NES (UniProt P48681)
inactive: [1] 0.07 | crizotinib 0.108 | [2] -0.233 | [3] 0.536 | duvelisib -0.075 | gandotinib 0.143 | tozasertib 0.246 | [4] 0.037 | doramapimod 0.132 | ispinesib -0.096 | bafetinib -0.292 | [5] -0.05 | dasatinib 0.336 | [8] 0.261 | [9] 0.016 | tipifarnib 0.188 | mubritinib 0.045

Reprinted at random: 2 records from the list
NES (UniProt P48681)
inactive: [1] 0.07 | crizotinib 0.108 | [2] -0.233 | [3] 0.536 | duvelisib -0.075 | gandotinib 0.143 | tozasertib 0.246 | [4] 0.037 | doramapimod 0.132 | ispinesib -0.096 | bafetinib -0.292 | [5] -0.05 | dasatinib 0.336 | [8] 0.261 | [9] 0.016 | tipifarnib 0.188 | mubritinib 0.045

NOL6 (UniProt Q9H6R4)
inactive: [1] -0.173 | crizotinib 0.081 | [2] -0.023 | [3] 0.463 | duvelisib -0.056 | gandotinib 0.06 | tozasertib 0.149 | [4] 0.098 | doramapimod 0.119 | ispinesib -0.087 | bafetinib 0.1 | [5] -0.116 | dasatinib 0.033 | [8] -0.203 | [9] -0.236 | tipifarnib 0.317 | mubritinib 0.019

Further entries

NOD1 (UniProt Q9Y239)
inactive: [1] -0.081 | crizotinib 0.291 | [2] -0.269 | [3] 0.311 | duvelisib 0.298 | gandotinib 0.177 | [4] -0.114 | doramapimod -0.033 | ispinesib -0.045 | bafetinib 0.04 | [5] -0.215 | dasatinib 0.05 | [8] -0.048 | [9] 0.047 | tipifarnib 0.192
